The supplement of paper PMC10849652
The list shows a part of the results. Residues, ends and D or L forms follow the SMILES beside them. *: point of attachment. Cbz = O=C(OCc1ccccc1)*

The chains behind the UniProt entries cited, without tags or fusion partners. Where a name states a change or a piece, a line headed by the entry shows the natural chain unless it says otherwise.
UniProt Q6N069: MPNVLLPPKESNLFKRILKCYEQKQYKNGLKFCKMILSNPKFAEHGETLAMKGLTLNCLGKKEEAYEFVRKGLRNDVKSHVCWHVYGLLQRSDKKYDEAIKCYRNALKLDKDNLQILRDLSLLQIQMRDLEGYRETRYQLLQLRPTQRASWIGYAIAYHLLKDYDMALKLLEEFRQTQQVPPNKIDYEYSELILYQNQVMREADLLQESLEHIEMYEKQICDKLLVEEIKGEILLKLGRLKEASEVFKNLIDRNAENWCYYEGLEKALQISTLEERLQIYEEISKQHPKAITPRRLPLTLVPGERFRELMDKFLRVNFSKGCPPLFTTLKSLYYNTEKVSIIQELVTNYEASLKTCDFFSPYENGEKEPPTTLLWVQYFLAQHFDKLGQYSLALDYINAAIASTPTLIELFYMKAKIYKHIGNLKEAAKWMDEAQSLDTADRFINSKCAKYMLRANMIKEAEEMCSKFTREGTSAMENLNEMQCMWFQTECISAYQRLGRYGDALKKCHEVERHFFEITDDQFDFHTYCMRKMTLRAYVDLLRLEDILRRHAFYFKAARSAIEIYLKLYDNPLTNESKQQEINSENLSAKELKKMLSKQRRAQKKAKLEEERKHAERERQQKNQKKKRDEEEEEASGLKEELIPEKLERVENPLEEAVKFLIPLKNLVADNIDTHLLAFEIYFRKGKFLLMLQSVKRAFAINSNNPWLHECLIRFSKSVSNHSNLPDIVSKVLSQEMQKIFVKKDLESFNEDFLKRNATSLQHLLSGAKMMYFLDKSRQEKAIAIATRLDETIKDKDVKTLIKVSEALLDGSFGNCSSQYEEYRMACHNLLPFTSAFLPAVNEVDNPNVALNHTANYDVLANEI
UniProt Q8IW45: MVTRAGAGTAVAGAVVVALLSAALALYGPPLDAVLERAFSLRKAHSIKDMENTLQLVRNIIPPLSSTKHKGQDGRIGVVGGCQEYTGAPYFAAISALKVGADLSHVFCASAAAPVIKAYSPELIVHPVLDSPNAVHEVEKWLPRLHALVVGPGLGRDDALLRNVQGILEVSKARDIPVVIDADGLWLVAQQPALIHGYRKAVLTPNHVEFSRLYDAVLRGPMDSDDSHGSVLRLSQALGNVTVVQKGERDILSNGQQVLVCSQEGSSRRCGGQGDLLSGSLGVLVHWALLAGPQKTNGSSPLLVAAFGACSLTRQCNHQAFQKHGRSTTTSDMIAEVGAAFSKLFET
UniProt O43674, whole entry, looked up: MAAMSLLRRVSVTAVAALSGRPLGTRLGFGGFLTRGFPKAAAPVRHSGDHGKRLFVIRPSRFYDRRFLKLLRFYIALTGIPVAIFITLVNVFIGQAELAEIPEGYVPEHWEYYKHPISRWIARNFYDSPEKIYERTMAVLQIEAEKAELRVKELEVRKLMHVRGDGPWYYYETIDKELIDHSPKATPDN
UniProt P17050: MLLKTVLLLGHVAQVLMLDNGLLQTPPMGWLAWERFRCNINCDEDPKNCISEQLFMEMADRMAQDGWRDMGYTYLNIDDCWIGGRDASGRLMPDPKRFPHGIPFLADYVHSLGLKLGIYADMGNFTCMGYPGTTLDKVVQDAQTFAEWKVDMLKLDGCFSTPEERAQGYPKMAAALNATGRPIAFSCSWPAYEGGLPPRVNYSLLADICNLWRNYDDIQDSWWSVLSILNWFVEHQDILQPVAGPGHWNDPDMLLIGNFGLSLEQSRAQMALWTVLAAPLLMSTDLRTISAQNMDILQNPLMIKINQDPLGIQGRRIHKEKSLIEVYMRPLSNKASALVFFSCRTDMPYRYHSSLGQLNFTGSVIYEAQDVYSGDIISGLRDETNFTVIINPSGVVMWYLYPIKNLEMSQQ
UniProt P51970, whole entry, looked up: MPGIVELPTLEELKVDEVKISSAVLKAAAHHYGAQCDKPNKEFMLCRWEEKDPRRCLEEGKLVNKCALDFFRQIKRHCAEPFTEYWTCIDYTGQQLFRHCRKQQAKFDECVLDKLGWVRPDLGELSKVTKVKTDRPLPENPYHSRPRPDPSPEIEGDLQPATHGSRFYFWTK
UniProt Q6NZ67, whole entry, looked up: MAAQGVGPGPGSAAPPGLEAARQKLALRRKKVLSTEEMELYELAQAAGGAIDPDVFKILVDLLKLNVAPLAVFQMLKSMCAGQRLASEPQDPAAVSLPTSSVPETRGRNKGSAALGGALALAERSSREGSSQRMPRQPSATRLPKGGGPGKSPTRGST
UniProt P46934: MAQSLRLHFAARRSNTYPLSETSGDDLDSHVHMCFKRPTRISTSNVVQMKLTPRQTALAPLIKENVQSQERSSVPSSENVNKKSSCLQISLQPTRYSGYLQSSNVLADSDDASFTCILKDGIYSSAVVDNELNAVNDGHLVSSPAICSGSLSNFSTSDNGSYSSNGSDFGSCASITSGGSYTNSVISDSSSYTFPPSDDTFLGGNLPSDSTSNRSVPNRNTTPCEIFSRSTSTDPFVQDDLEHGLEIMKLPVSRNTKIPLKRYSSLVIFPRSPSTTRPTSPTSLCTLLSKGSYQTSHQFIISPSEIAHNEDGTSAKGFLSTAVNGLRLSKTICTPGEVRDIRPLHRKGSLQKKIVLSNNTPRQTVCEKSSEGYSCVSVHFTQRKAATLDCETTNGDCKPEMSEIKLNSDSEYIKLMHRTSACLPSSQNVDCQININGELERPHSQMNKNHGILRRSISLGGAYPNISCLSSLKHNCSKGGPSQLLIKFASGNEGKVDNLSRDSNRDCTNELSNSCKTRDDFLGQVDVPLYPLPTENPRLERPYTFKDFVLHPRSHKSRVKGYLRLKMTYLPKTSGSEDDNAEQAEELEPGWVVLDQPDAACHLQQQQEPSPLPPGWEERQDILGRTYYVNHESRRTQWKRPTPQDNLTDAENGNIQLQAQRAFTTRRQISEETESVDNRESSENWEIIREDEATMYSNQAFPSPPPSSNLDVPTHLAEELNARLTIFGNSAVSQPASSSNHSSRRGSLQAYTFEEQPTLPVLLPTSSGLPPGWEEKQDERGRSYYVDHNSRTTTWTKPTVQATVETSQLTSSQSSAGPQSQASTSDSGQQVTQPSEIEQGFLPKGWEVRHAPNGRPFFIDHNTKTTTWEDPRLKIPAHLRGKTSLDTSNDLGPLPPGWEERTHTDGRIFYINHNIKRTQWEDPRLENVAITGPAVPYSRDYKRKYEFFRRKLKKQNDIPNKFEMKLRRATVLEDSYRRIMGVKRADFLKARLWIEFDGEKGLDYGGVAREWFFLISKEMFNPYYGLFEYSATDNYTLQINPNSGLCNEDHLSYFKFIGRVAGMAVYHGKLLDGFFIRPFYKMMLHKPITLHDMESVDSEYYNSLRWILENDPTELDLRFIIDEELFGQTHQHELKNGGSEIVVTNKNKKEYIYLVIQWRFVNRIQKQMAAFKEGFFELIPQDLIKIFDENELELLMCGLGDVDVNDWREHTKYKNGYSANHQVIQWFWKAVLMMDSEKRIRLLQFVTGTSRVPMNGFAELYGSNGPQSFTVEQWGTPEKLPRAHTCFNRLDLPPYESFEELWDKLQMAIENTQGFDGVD
UniProt O95139, whole entry, looked up: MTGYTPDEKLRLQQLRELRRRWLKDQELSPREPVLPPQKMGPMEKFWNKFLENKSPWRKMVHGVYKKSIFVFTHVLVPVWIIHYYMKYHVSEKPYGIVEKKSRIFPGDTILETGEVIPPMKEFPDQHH
UniProt P41227: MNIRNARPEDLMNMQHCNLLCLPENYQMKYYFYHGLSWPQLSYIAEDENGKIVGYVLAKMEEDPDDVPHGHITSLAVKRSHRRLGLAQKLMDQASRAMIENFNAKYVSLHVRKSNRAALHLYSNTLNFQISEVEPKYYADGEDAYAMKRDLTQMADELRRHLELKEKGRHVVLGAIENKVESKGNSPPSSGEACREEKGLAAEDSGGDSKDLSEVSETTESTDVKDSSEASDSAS
UniProt Q09161: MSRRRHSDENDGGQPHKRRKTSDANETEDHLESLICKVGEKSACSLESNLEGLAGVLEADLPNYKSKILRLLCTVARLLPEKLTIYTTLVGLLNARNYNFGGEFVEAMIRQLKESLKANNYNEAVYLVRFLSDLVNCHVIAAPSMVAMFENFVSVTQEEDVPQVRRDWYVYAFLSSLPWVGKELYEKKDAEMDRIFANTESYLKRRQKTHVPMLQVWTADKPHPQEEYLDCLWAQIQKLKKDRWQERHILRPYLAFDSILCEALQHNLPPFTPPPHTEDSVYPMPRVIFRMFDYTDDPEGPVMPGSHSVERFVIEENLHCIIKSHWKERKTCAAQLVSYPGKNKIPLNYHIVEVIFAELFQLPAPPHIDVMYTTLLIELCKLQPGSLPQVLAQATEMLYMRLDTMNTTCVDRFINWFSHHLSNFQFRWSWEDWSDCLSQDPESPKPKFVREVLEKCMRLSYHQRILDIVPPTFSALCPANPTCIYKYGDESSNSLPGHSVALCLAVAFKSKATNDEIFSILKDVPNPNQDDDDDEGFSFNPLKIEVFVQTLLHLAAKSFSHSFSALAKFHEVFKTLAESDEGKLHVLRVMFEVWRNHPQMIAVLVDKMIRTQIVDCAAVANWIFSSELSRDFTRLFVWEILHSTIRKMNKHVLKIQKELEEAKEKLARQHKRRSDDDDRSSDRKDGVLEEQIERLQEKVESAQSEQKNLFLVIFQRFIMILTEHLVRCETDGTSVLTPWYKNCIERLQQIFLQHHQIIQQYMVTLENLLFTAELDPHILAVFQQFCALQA
UniProt O95299, whole entry, looked up: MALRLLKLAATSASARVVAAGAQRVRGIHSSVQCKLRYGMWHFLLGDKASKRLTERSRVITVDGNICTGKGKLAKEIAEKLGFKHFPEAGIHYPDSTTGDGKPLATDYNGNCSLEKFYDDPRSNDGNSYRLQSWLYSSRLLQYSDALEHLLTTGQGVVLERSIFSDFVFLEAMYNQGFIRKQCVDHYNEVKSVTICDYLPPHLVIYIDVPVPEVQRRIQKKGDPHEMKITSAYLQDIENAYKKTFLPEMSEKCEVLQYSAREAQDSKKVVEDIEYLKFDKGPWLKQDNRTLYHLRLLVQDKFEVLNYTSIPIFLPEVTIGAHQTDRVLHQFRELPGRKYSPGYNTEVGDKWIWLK
UniProt P19404, whole entry, looked up: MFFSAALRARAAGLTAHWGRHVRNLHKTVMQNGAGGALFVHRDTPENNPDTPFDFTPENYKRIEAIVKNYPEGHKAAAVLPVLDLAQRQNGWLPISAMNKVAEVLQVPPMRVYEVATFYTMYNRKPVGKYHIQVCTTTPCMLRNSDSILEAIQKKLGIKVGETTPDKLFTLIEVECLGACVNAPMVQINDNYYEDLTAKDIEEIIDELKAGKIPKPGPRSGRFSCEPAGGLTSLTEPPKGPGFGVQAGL
UniProt P52298: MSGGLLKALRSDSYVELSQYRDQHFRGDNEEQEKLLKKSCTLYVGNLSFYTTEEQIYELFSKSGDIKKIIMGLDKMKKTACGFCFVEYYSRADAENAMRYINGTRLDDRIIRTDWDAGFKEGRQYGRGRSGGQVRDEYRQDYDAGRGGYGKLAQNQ
UniProt P49821, whole entry, looked up: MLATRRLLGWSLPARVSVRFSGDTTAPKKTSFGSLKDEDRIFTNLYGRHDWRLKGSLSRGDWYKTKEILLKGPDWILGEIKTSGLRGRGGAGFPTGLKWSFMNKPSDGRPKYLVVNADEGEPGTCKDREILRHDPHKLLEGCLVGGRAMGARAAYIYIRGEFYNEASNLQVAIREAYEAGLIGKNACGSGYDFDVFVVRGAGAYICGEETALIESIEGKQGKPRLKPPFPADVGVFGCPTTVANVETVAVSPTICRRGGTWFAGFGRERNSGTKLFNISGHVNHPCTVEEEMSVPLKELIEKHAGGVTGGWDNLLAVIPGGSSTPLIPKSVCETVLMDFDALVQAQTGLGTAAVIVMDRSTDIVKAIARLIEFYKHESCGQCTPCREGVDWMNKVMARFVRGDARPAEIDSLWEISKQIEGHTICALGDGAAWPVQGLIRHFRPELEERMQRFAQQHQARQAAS
UniProt O43181, whole entry, looked up: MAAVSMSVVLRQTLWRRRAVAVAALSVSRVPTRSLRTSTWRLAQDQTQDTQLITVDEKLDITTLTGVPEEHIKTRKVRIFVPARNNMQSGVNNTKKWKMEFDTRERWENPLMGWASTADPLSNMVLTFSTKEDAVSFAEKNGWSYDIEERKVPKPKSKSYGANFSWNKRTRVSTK

Key:
Assay in all cases: log2 fold change, soluble protein after heating vs DMSO (PISA); higher = thermal stabilisation; K562 cells, 10 uM, 30 min; active = over 0.2 and 3.5 SD of the protein, either way, in both replicates (recomputed)
erlotinib = compound: C#Cc1cccc(Nc2ncnc3cc(OCCOC)c(OCCOC)cc23)c1 [erlotinib]
Method in brief: (§1)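 Values are thermal stability changes relative to control samples and are taken from duplicates. They are stated as log2 fold changes. Before quantification by TMTpro 16plex LC-MS/MS with equalised channel sums, K562 cells at 2×10^6 cells/mL were treated with 10 μM compound for 30 min, heated in aliquots for 3 min across 48°C-58°C, pooled, extracted in PBS with 0.5% NP-40 at 4°C, and centrifuged at 21,000xg for 90 min to give the soluble supernatant.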

[1] = compound: C/C(=N\NC(=O)C1=CC(=CC=C1)S(=O)(=O)N2CCOCC2)/C3=C(C=CC(=C3)Cl)O
Method in brief: as §1

[2] = compound: C1=CC(=C(C=C1Cl)C2=NC3=NC=CN=C3C(=N2)NC4=CC=NC=C4)F
Method in brief: as §1

[3] = compound: C1=CC(=CC=C1C2=NC3=C(N2)C=C(C=C3)C(=O)N)OC4=CC=C(C=C4)Cl
Method in brief: as §1

[4] = compound: C1=CC2=C(C=CC(=C2)/C=C\3/C(=O)NC(=NCC4=CC=CS4)S3)N=C1
Method in brief: as §1

[5] = compound: C1=CC2=NC=CN=C2C=C1/C=C/3\C(=O)NC(=O)S3
Method in brief: as §1

[6] = compound: C1=CC=C(C=C1)C2=NC(=C(N2)C3=CC=NC=C3)C4=CC(=C(C=C4)Cl)O
Method in brief: as §1

[7] = compound: C1=CC=C2C(=C1)C3=NNC4=CC=CC(=C43)C2=O
Method in brief: as §1

[8] = compound: C1CCN(C1)C(=O)NC2=CC=CC(=C2)NC3=NC=C(C(=N3)NCCC4=CN=CN4)Br
Method in brief: as §1

[9] = compound: C1CN(CCC1(CC2=CC=C(C=C2)Cl)N)C3=NC=NC4=C3C=CN4
Method in brief: as §1

IRAK-1-4 Inhibitor I = compound: C1COCCN1CCN2C3=CC=CC=C3N=C2NC(=O)C4=CC(=CC=C4)[N+](=O)[O-] [IRAK-1-4 Inhibitor I]
Method in brief: as §1

ibrutinib = compound: C=CC(=O)N1CCC[C@@H](n2nc(-c3ccc(Oc4ccccc4)cc3)c3c(N)ncnc32)C1 [ibrutinib]
Method in brief: as §1

[10] = compound: CC(=O)c1cnc2ccc(-c3cc(Cl)c(O)c(Cl)c3)nc2c1N[C@H]1CC[C@H](CN(C)C)CC1
Method in brief: as §1

ralimetinib = compound: CC(C)(C)Cn1c(N)nc2ccc(-c3[nH]c(C(C)(C)C)nc3-c3ccc(F)cc3)nc21 [ralimetinib]
Method in brief: as §1

[11] = compound: CC(C)(O)CC(=O)NCCn1ccc2ncnc(Nc3ccc(Oc4cccc(C(F)(F)F)c4)c(Cl)c3)c21
Method in brief: as §1

[12] = compound: CC(C)C1=C2N=C(C=C(N2N=C1)NCC3=CC=CC=C3)NCCCCCCN
Method in brief: as §1

[13] = compound: CC(C)C[C@@H](C=O)NC(=O)[C@H](CC(C)C)NC(=O)[C@H](CC(C)C)NC(=O)OCc1ccccc1
Method in brief: as §1

pinometostat = compound: CC(C)N(C[C@H]1O[C@@H](n2cnc3c(N)ncnc32)[C@H](O)[C@@H]1O)[C@H]1C[C@@H](CCc2nc3cc(C(C)(C)C)ccc3[nH]2)C1 [pinometostat]
Method in brief: as §1

[14] = compound: CC1=C(C(CC(=O)N1)C2=CC=C(C=C2)C(F)(F)F)C(=O)NC3=C(C=C4C(=C3)C=NN4)F
Method in brief: as §1

[15] = compound: CC1=C(C2=C(C=C1)C(=O)C3=CC=CC=C3N2CCCN)C
Method in brief: as §1

Measured: log2 fold change

NAA16 (UniProt Q6N069)
inactive: erlotinib 0.088 | [1] 0.012 | [2] -0.005 | [3] -0.02 | [4] 0.021 | [5] -0.073 | [6] 0.001 | [7] 0.089 | [8] -0.005 | [9] 0.064 | IRAK-1-4 Inhibitor I -0.043 | ibrutinib 0.06 | [10] -0.204 | ralimetinib 0.037 | [11] 0.016 | [12] -0.075 | [13] 0.002 | pinometostat 0.008 | [14] -0.014 | [15] 0.013

NAXD (UniProt Q8IW45)
inactive: erlotinib 0.017 | [1] 0.024 | [2] 0.062 | [3] 0.022 | [4] -0.102 | [5] -0.011 | [6] -0.01 | [7] 0.02 | [8] -0.068 | [9] 0.076 | IRAK-1-4 Inhibitor I 0.051 | ibrutinib 0.053 | [10] 0.004 | ralimetinib -0.064 | [11] 0.012 | [12] 0.028 | [13] -0.032 | pinometostat -0.044 | [14] 0.004 | [15] -0.072

NDUFB5 (UniProt O43674)
inactive: erlotinib 0.071 | [1] -0.007 | [2] 0.042 | [3] -0.042 | [4] 0.006 | [5] 0.038 | [6] -0.017 | [7] -0.015 | [8] 0.026 | [9] 0.006 | IRAK-1-4 Inhibitor I 0.005 | ibrutinib 0.011 | [10] 0.014 | ralimetinib -0.041 | [11] -0.041 | [12] -0.04 | [13] 0.051 | pinometostat -0.018 | [14] -0.003 | [15] -0.013

NAGA (UniProt P17050)
inactive: erlotinib 0.04 | [1] -0.014 | [2] 0.001 | [3] -0.026 | [4] -0.012 | [5] 0.009 | [6] -0.003 | [7] 0.02 | [8] 0.064 | [9] 0.041 | IRAK-1-4 Inhibitor I -0.01 | ibrutinib 0.014 | [10] -0.036 | ralimetinib -0.036 | [11] -0.014 | [12] -0.118 | [13] 0.008 | pinometostat -0.033 | [14] 0.061 | [15] -0.013

NDUFA8 (UniProt P51970)
inactive: erlotinib 0 | [1] -0.004 | [2] 0.045 | [3] -0.02 | [4] 0.024 | [5] 0.01 | [6] -0.032 | [7] 0.015 | [8] 0.032 | [9] -0.029 | IRAK-1-4 Inhibitor I -0.001 | ibrutinib 0.008 | [10] 0.013 | ralimetinib -0.076 | [11] -0.009 | [12] -0.109 | [13] -0.061 | pinometostat -0.045 | [14] 0.024 | [15] -0.013

MZT2B (UniProt Q6NZ67)
inactive: erlotinib 0.03 | [1] -0.134 | [2] -0.016 | [3] 0.01 | [4] -0.112 | [5] 0.133 | [6] -0.018 | [7] 0.066 | [8] -0.059 | [9] -0.099 | IRAK-1-4 Inhibitor I -0.073 | ibrutinib -0.039 | [10] 0.061 | ralimetinib 0.062 | [11] -0.025 | [12] 0.053 | [13] 0.027 | pinometostat 0.005 | [14] 0.109 | [15] 0.108

NEDD4 isoform 4 (UniProt P46934)
inactive: erlotinib -0.024 | [1] 0.067 | [2] 0.048 | [3] -0.011 | [4] 0.052 | [5] 0.066 | [6] 0.048 | [7] -0.001 | [8] 0.003 | [9] -0.053 | IRAK-1-4 Inhibitor I 0.002 | ibrutinib -0.038 | [10] 0.02 | ralimetinib -0.014 | [11] -0.027 | [12] -0.124 | [13] 0.019 | pinometostat -0.03 | [15] -0.065

NDUFB6 (UniProt O95139)
inactive: erlotinib -0.013 | [1] -0.026 | [2] -0.009 | [3] 0.019 | [4] -0.064 | [5] 0.016 | [6] -0.002 | [7] -0.016 | [8] 0.038 | [9] -0.036 | IRAK-1-4 Inhibitor I 0.011 | ibrutinib 0.034 | [10] -0.03 | ralimetinib -0.079 | [11] 0.025 | [12] -0.06 | [13] 0.019 | pinometostat -0.023 | [14] 0.033 | [15] -0.098

NAA10 (UniProt P41227)
inactive: erlotinib -0.001 | [1] 0.098 | [2] 0.031 | [3] 0.037 | [4] -0.025 | [5] -0.084 | [6] 0.052 | [7] 0.003 | [8] -0.028 | [9] 0.015 | IRAK-1-4 Inhibitor I 0.013 | ibrutinib 0.005 | [10] -0.012 | ralimetinib -0.033 | [11] -0.034 | [12] -0.003 | [13] -0.016 | pinometostat -0.048 | [14] 0.009 | [15] 0.056

2 entries picked at random from those above:
MZT2B (UniProt Q6NZ67)
inactive: erlotinib 0.03 | [1] -0.134 | [2] -0.016 | [3] 0.01 | [4] -0.112 | [5] 0.133 | [6] -0.018 | [7] 0.066 | [8] -0.059 | [9] -0.099 | IRAK-1-4 Inhibitor I -0.073 | ibrutinib -0.039 | [10] 0.061 | ralimetinib 0.062 | [11] -0.025 | [12] 0.053 | [13] 0.027 | pinometostat 0.005 | [14] 0.109 | [15] 0.108

NEDD4 isoform 4 (UniProt P46934)
inactive: erlotinib -0.024 | [1] 0.067 | [2] 0.048 | [3] -0.011 | [4] 0.052 | [5] 0.066 | [6] 0.048 | [7] -0.001 | [8] 0.003 | [9] -0.053 | IRAK-1-4 Inhibitor I 0.002 | ibrutinib -0.038 | [10] 0.02 | ralimetinib -0.014 | [11] -0.027 | [12] -0.124 | [13] 0.019 | pinometostat -0.03 | [15] -0.065

Continued:

NCBP1 (UniProt Q09161)
inactive: erlotinib -0.009 | [1] 0.013 | [2] 0.032 | [3] -0.01 | [4] -0.015 | [5] 0.024 | [6] 0.04 | [7] -0.009 | [8] -0.021 | [9] -0.028 | IRAK-1-4 Inhibitor I 0 | ibrutinib -0.002 | [10] 0.017 | ralimetinib -0.014 | [11] -0.042 | [12] -0.003 | [13] -0.028 | pinometostat 0.001 | [14] 0.028 | [15] 0.125

NDUFA10 (UniProt O95299)
inactive: erlotinib 0.001 | [1] 0.036 | [2] 0.068 | [3] 0.003 | [4] 0.024 | [5] 0.042 | [6] 0.026 | [7] 0.026 | [8] 0.016 | [9] 0.02 | IRAK-1-4 Inhibitor I 0.03 | ibrutinib -0.017 | [10] -0.052 | ralimetinib -0.07 | [11] -0.114 | [12] -0.076 | [13] 0.012 | pinometostat -0.003 | [14] 0.029 | [15] 0.065

NDUFV2 (UniProt P19404)
inactive: erlotinib 0.035 | [1] -0.066 | [2] -0.017 | [3] -0.006 | [4] -0.068 | [5] 0.06 | [6] -0.005 | [7] -0.002 | [8] 0.016 | [9] 0.055 | IRAK-1-4 Inhibitor I 0.021 | ibrutinib 0.014 | [10] 0.033 | ralimetinib -0.034 | [11] -0.044 | [12] 0.055 | [13] 0.131 | pinometostat 0.026 | [14] 0.005 | [15] -0.005

NCBP2 (UniProt P52298)
inactive: erlotinib 0.02 | [1] -0.068 | [2] 0.05 | [3] -0.023 | [4] -0.034 | [5] 0.01 | [6] 0.024 | [7] 0.025 | [8] -0.032 | [9] 0.018 | IRAK-1-4 Inhibitor I 0.095 | ibrutinib -0.017 | [10] -0.001 | ralimetinib 0.001 | [11] 0.005 | [12] 0.039 | [13] -0.009 | pinometostat -0.049 | [14] -0.021 | [15] 0.105

NDUFV1 (UniProt P49821)
inactive: erlotinib -0.037 | [1] -0.026 | [2] 0.003 | [3] -0.009 | [4] 0.049 | [5] 0.05 | [6] 0.027 | [7] 0.017 | [8] 0.007 | [9] 0.047 | IRAK-1-4 Inhibitor I 0.025 | ibrutinib 0.005 | [10] 0.001 | ralimetinib -0.042 | [11] -0.124 | [12] 0.001 | [13] -0.001 | pinometostat 0.011 | [14] 0.058 | [15] 0.033

NDUFS4 (UniProt O43181)
inactive: erlotinib -0.001 | [1] -0.031 | [2] -0.004 | [3] 0.07 | [4] -0.093 | [5] 0.077 | [6] -0.104 | [7] -0.081 | [8] 0.082 | [9] 0.111 | IRAK-1-4 Inhibitor I 0.076 | ibrutinib 0.029 | [10] 0.062 | ralimetinib 0.015 | [11] 0.022 | [12] 0.007 | pinometostat 0.013 | [15] -0.193
active: [13] 0.274

NAA15, A0A0B4J1W3
inactive: erlotinib -0.006 | [1] 0.096 | [2] 0.097 | [3] 0.029 | [4] 0.035 | [5] -0.052 | [6] 0.063 | [7] -0.034 | [8] -0.012 | [9] 0.015 | IRAK-1-4 Inhibitor I 0.024 | ibrutinib 0.05 | [10] 0.048 | ralimetinib -0.084 | [11] -0.047 | [12] 0.068 | [13] -0.154 | pinometostat -0.02 | [14] 0.293 | [15] 0.129
